# Results deposited as PubChem BioAssay AID1259308 (NCATS, 2017)
# Screen: 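Candidate targets for better recombinant protein yield in mammalian cells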 (primary screen)
# Cell system: human HEK293 embryonic kidney cells stably expressing firefly luciferase (HEK-CMV-Luc2-Hygro)
# Reagent: single siRNA against human genes, 0.8 pmol siRNA per well
# Duration: 72 h
# Detection: 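Reporter luminescence and viable-cell signal on separate replicate plates, given as percent of non-targeting control and median/MAD z-scores, plus per-cell luciferase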
# Direction: total luciferase, z-score and total luciferase, % of control: higher = more reporter protein produced; luciferase per cell, z-score: higher = more reporter output per viable cell; viable cells, % of control: higher = more viable cells
# Rule for the call: 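Active when the median/MAD z-score for overall luciferase is greater than 3; a gene was taken forward for validation with new siRNAs if at least two of its three siRNAs passed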
# Calls: active = raised luciferase; inactive = no rise
# Shown is a random part of about 59,000 reagents tested. About 1,510 of all reagents (2.6%) count as active. 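Calls use total luciferase alone and ignore viability, so some active siRNAs may act by altering cell number.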 Reagents against one gene are numbered here.
Target gene,reagent,"total luciferase, z-score","total luciferase, % of control","luciferase per cell, z-score","viable cells, % of control",Outcome
MAU2,1,4.47,171,3.14,83.5,active
MAU2,2,-0.37,74.5,1.38,57.9,inactive
MAU2,3,0.389,89.6,1.04,76.2,inactive
GUSBP5,1,0.524,92.3,1.32,72.8,inactive
GUSBP5,2,-1.1,59.9,-0.478,76,inactive
GUSBP5,3,2.93,140,1.16,115,inactive
CYB5R1,1,-0.781,66.3,-0.869,93.2,inactive
CYB5R1,2,-0.0226,81.4,-0.277,97.9,inactive
CYB5R1,3,0.956,101,1.04,85.6,inactive
BACE1,1,-0.971,62.6,-1.77,112,inactive
BACE1,2,-0.305,75.8,-0.504,96.8,inactive
BACE1,3,-2.11,40,-2.13,78.3,inactive
HSD17B6,1,-0.0508,80.9,0.145,87,inactive
HSD17B6,2,0.791,97.6,1.57,72.1,inactive
HSD17B6,3,-2.5,32.3,-1.1,48.2,inactive
PGLYRP2,1,-0.881,64.4,-1.33,102,inactive
PGLYRP2,2,-0.22,77.5,-0.511,99.1,inactive
PGLYRP2,3,-1.53,51.4,-1.11,77,inactive
ATP5IF1,1,-0.0446,81,-0.46,102,inactive
ATP5IF1,2,-0.188,78.1,-0.476,99,inactive
ATP5IF1,3,0.103,83.9,-0.141,97.3,inactive
EP400,1,3.09,143,2.66,79.5,active
EP400,2,0.922,100,1.51,75.3,inactive
EP400,3,2.57,133,2.9,69.1,inactive
TEX19,1,-0.519,71.6,0.258,74.7,inactive
TEX19,2,0.986,101,0.878,90,inactive
TEX19,3,-1.1,60,-0.862,84.2,inactive
CCDC97,1,0.601,93.8,0.102,102,inactive
CCDC97,2,1.11,104,0.743,95.5,inactive
CCDC97,3,0.935,100,-0.0505,114,inactive
CLCN3,1,0.883,99.5,1.59,73.1,inactive
CLCN3,2,0.374,89.3,0.245,93.6,inactive
CLCN3,3,2.18,125,1.74,88.4,inactive
SPRY2,1,0.868,99.1,0.229,104,inactive
SPRY2,2,1.54,113,0.518,110,inactive
SPRY2,3,-0.573,70.5,-0.489,89.6,inactive
AARS1,1,-0.0348,81.2,0.121,87.9,inactive
AARS1,2,0.347,88.8,0.645,83.7,inactive
AARS1,3,-0.811,65.7,-1.54,110,inactive
MAGEB3,1,0.112,84.1,0.534,81.7,inactive
MAGEB3,2,-0.0756,80.4,1.13,66.6,inactive
MAGEB3,3,-0.283,76.3,-1.08,113,inactive
SMG8,1,0.556,92.9,-0.0934,106,inactive
SMG8,2,1.21,106,0.0187,118,inactive
SMG8,3,0.381,89.5,-0.468,113,inactive
PCDHB16,1,0.701,95.8,0.462,94.8,inactive
PCDHB16,2,-1.54,51.3,-1.61,87.7,inactive
PCDHB16,3,-0.519,71.6,0.351,72.9,inactive
AZI2,1,-1.46,52.9,-1.66,91.6,inactive
AZI2,2,-0.985,62.3,-0.876,87.7,inactive
AZI2,3,1.25,107,1.32,84.2,inactive
SPMIP8,1,-0.782,66.3,-0.231,78.8,inactive
SPMIP8,2,-0.287,76.2,-0.184,89.3,inactive
SPMIP8,3,0.689,95.6,0.634,90.4,inactive
GIGYF1,1,0.336,88.6,-0.323,108,inactive
GIGYF1,2,0.78,97.4,-0.0829,111,inactive
GIGYF1,3,-1.34,55.3,-0.367,68.1,inactive

Laid out differently: 5 of the entries above
| Target gene | reagent | total luciferase, z-score | total luciferase, % of control | luciferase per cell, z-score | viable cells, % of control | Outcome |
| --- | --- | --- | --- | --- | --- | --- |
| MAGEB3 | 1 | 0.112 | 84.1 | 0.534 | 81.7 | inactive |
| MAGEB3 | 2 | -0.0756 | 80.4 | 1.13 | 66.6 | inactive |
| MAGEB3 | 3 | -0.283 | 76.3 | -1.08 | 113 | inactive |
| SMG8 | 1 | 0.556 | 92.9 | -0.0934 | 106 | inactive |
| SMG8 | 2 | 1.21 | 106 | 0.0187 | 118 | inactive |
